Results as given in the supplement of paper PMC4635364.
Where a name gives a salt, the structure may show the parent alone. This is one part of the list. Repeats in this data set agree poorly, so a single value says little.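 Cells: ReNCell VM human fetal ventral-midbrain neural progenitors, differentiated mitogen-free. Blinded raters compared doublecortin-stained (early neurons) or tyrosine hydroxylase-stained (dopaminergic neurons) images with untreated wells, where 0 means no change. After repeats and both raters were averaged, compounds scoring 2 or above became hits for retesting.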

Legend:
ReNCell VM [1] = assay: neuronal differentiation score (DCX+ cell fraction vs untreated, manual image score) (score (-3 to 3)); higher = more neuronal differentiation; conditions: 2 uM, 2 weeks
ReNCell VM [2] = assay: dopaminergic neuron differentiation score (TH+ cell fraction vs untreated, manual image score) (score (0 to 3)); higher = more TH+ dopaminergic neuron differentiation; conditions: 2 uM, 4 weeks, BDNF 10 ng/ml + GDNF 10 ng/ml

C[C@@H]1CC[C@@]2(OC1)O[C@H]1C[C@H]3[C@@H]4CC=C5C[C@@H](O)CC[C@]5(C)[C@H]4CC[C@]3(C)[C@H]1[C@@H]2C [Diosgenin]
neuronal differentiation score (ReNCell VM [1]; library: Phytochemical): inactive: 0 | dopaminergic neuron differentiation score (ReNCell VM [2]; library: Phytochemical): inactive: 0

Clc1ccc(C(c2ccccc2Cl)C(Cl)Cl)cc1 (stereo not given) [1-(2-Chlorophenyl)-1-(4-chlorophenyl)-2,2-dichloroethane]
neuronal differentiation score (ReNCell VM [1]; library: LOPAC): inactive: 0 | dopaminergic neuron differentiation score (ReNCell VM [2]; library: LOPAC): inactive: 0

O=C(CCCl)NCc1ccccc1
neuronal differentiation score (ReNCell VM [1]; library: Spectrum): inactive: 0 | dopaminergic neuron differentiation score (ReNCell VM [2]; library: Spectrum): inactive: 0

CCc1nn(CCCN2CCN(c3cccc(Cl)c3)CC2)c(=O)n1CCOc1ccccc1 [Nefazodone hydrochloride]
neuronal differentiation score (ReNCell VM [1]; library: Tocriscreen): inactive: 0 | dopaminergic neuron differentiation score (ReNCell VM [2]; library: Tocriscreen): inactive: 0

Cc1cc(NC(=O)C2=C(O)c3ccccc3S(=O)(=O)N2C)no1
neuronal differentiation score (ReNCell VM [1]; library: Spectrum): inactive: 0 | dopaminergic neuron differentiation score (ReNCell VM [2]; library: Spectrum): inactive: 0

Cc1cc(C(C)(C)CC(C)(C)C)ccc1OCCOCC[N+](C)(C)Cc1ccccc1 [Methyl benzethonium chloride]
neuronal differentiation score (ReNCell VM [1]; library: Prestwick): inactive: 0 | dopaminergic neuron differentiation score (ReNCell VM [2]; library: Prestwick): inactive: 0

COc1ccc2c(OC)c3ccoc3nc2c1OC [Skimmianine]
neuronal differentiation score (ReNCell VM [1]; library: Phytochemical): inactive: 0 | dopaminergic neuron differentiation score (ReNCell VM [2]; library: Phytochemical): inactive: 0

O=C(O)C1CCNCC1 [Isonipecotic acid]
neuronal differentiation score (ReNCell VM [1]; library: LOPAC): inactive: 0 | dopaminergic neuron differentiation score (ReNCell VM [2]; library: LOPAC): inactive: 0

O=C(O)Cc1ccc(OCCNC[C@H](O)c2ccccc2)cc1 [ZD 2079 hydrochloride]
neuronal differentiation score (ReNCell VM [1]; library: Tocriscreen): inactive: 0 | dopaminergic neuron differentiation score (ReNCell VM [2]; library: Tocriscreen): inactive: 0

CCC(=O)OCC(=O)[C@@]1(OC(=O)CC)[C@H](C)CC2C3C([C@@H](O)C[C@@]21C)[C@@]1(C)C=CC(=O)C=C1C[C@H]3Cl (stereo not given in full)
neuronal differentiation score (ReNCell VM [1]; library: Spectrum): inactive: 1 | dopaminergic neuron differentiation score (ReNCell VM [2]; library: Spectrum): inactive: 0

C[C@@H]1O[C@@H]1P(=O)(O)O [Phosphomycin disodium]
neuronal differentiation score (ReNCell VM [1]; library: LOPAC): inactive: 0 | dopaminergic neuron differentiation score (ReNCell VM [2]; library: LOPAC): inactive: 0

N[C@@H](C(=O)N[C@@H]1C(=O)N2C(C(=O)O)=C(Cl)CS[C@H]12)c1ccccc1
neuronal differentiation score (ReNCell VM [1]; library: Spectrum): inactive: 0 | dopaminergic neuron differentiation score (ReNCell VM [2]; library: Spectrum): inactive: 1

N#CC(c1ccc(Cl)cc1)c1c(Cl)cc(-n2ncc(=O)[nH]c2=O)cc1Cl (stereo not given)
neuronal differentiation score (ReNCell VM [1]; library: Spectrum): inactive: 0 | dopaminergic neuron differentiation score (ReNCell VM [2]; library: Spectrum): inactive: 0

NC(N)=Nc1ccc(Cl)cc1 [4-Chlorophenylguanidine hydrochloride]
neuronal differentiation score (ReNCell VM [1]; library: Tocriscreen): inactive: 0 | dopaminergic neuron differentiation score (ReNCell VM [2]; library: Tocriscreen): inactive: 0

CC(=O)O[C@H]1C[C@@]2(C)[C@@H](C[C@@H](O)[C@H]3[C@@]4(C)CC[C@@H](O)[C@@H](C)[C@@H]4CC[C@@]32C)/C1=C(\CCC=C(C)C)C(=O)O [Fusidic acid sodium salt]
neuronal differentiation score (ReNCell VM [1]; library: Prestwick): inactive: 0 | dopaminergic neuron differentiation score (ReNCell VM [2]; library: Prestwick): inactive: 0

O=C1CN(/N=C/c2ccc([N+](=O)[O-])o2)C(=O)N1
neuronal differentiation score (ReNCell VM [1]; library: Spectrum): inactive: 0 | dopaminergic neuron differentiation score (ReNCell VM [2]; library: Spectrum): inactive: 0

N#C/C(=C(/N)Sc1ccc(N)cc1)c1ccccc1C(F)(F)F
neuronal differentiation score (ReNCell VM [1]; library: Tocriscreen): inactive: 0 | dopaminergic neuron differentiation score (ReNCell VM [2]; library: Tocriscreen): inactive: 0

C[C@@](Cc1ccc(O)c(O)c1)(NN)C(=O)O
neuronal differentiation score (ReNCell VM [1]; library: Spectrum): inactive: 0 | dopaminergic neuron differentiation score (ReNCell VM [2]; library: Spectrum): inactive: 0

COc1cc(O)c(C(C)=O)c(O)c1
neuronal differentiation score (ReNCell VM [1]; library: Spectrum): inactive: 0 | dopaminergic neuron differentiation score (ReNCell VM [2]; library: Spectrum): inactive: 1

O=C(O)COc1cccc(-c2ocnc2-c2nc(-c3ccccc3)c(-c3ccccc3)o2)c1
neuronal differentiation score (ReNCell VM [1]; library: Tocriscreen): inactive: 0 | dopaminergic neuron differentiation score (ReNCell VM [2]; library: Tocriscreen): inactive: 0

NS(=O)(=O)C#Cc1ccccc1 [Pifithrin-mu]
neuronal differentiation score (ReNCell VM [1]; library: LOPAC): inactive: 0 | dopaminergic neuron differentiation score (ReNCell VM [2]; library: LOPAC): inactive: 0

Cc1cc(C)c(NC(=O)C[C@H](CC(=O)O)c2cccc3ccccc23)c(C(=O)N2CCC3(CCCC3)CC2)c1
neuronal differentiation score (ReNCell VM [1]; library: LOPAC): inactive: 0 | dopaminergic neuron differentiation score (ReNCell VM [2]; library: LOPAC): inactive: 0

CN(N=O)C(=O)N[C@@H](C=O)[C@@H](O)[C@H](O)[C@H](O)CO [Streptozotocin]
neuronal differentiation score (ReNCell VM [1]; library: Prestwick): inactive: 0 | dopaminergic neuron differentiation score (ReNCell VM [2]; library: Prestwick): inactive: 0

N=c1ccn2c(n1)O[C@H]1[C@H](O)[C@@H](CO)O[C@H]12 [Ancitabine hydrochloride]
neuronal differentiation score (ReNCell VM [1]; library: LOPAC): inactive: 0 | dopaminergic neuron differentiation score (ReNCell VM [2]; library: LOPAC): inactive: 0

CC(C)c1nc(CN(C)C(=O)N[C@H](C(=O)N[C@@H](Cc2ccccc2)C[C@H](O)[C@H](Cc2ccccc2)NC(=O)OCc2cncs2)C(C)C)cs1
neuronal differentiation score (ReNCell VM [1]; library: Spectrum): inactive: 1 | dopaminergic neuron differentiation score (ReNCell VM [2]; library: Spectrum): inactive: 0

OC[C@H]1O[C@@H](OCCc2ccc(O)cc2)[C@H](O)[C@@H](O)[C@@H]1O [salidroside]
neuronal differentiation score (ReNCell VM [1]; library: Natural): inactive: 0 | dopaminergic neuron differentiation score (ReNCell VM [2]; library: Natural): inactive: 0

CC[C@H](/C=C/[C@@H](C)[C@H]1CC[C@H]2[C@@H]3CC=C4C[C@@H](O)CC[C@]4(C)[C@H]3CC[C@]12C)C(C)C
neuronal differentiation score (ReNCell VM [1]; library: Spectrum): inactive: 0 | dopaminergic neuron differentiation score (ReNCell VM [2]; library: Spectrum): inactive: 0

Cc1cccc(C)c1NC(=O)C1CCCCN1C (stereo not given) [Mepivacaine hydrochloride]
neuronal differentiation score (ReNCell VM [1]; library: Prestwick): inactive: 0 | dopaminergic neuron differentiation score (ReNCell VM [2]; library: Prestwick): inactive: 0

NCCS [Cysteamine hydrochloride]
neuronal differentiation score (ReNCell VM [1]; library: LOPAC): inactive: 1 | dopaminergic neuron differentiation score (ReNCell VM [2]; library: LOPAC): inactive: 0

CC1CCC(NC(=O)N(CCCl)N=O)CC1 (stereo not given)
neuronal differentiation score (ReNCell VM [1]; library: Spectrum): inactive: 0 | dopaminergic neuron differentiation score (ReNCell VM [2]; library: Spectrum): inactive: 0

CCCCC(CC)CNC(=N)NC(=N)NCCCCCCNC(=N)NC(=N)NCC(CC)CCCC (stereo not given) [Alexidine dihydrochloride]
neuronal differentiation score (ReNCell VM [1]; library: Prestwick): inactive: 0 | dopaminergic neuron differentiation score (ReNCell VM [2]; library: Prestwick): inactive: 0

CCCCCNC(=N)N/N=C/c1c[nH]c2ccc(OC)cc12
neuronal differentiation score (ReNCell VM [1]; library: Spectrum): inactive: 0 | dopaminergic neuron differentiation score (ReNCell VM [2]; library: Spectrum): inactive: 0

Nc1ccc(S(=O)(=O)Nc2nccs2)cc1 [Sulfathiazole]
neuronal differentiation score (ReNCell VM [1]; library: Prestwick): inactive: 0 | dopaminergic neuron differentiation score (ReNCell VM [2]; library: Prestwick): inactive: 0

CN1CCN(c2c(F)cc3c(=O)c(C(=O)O)cn(CCF)c3c2F)CC1 [Fleroxacin]
neuronal differentiation score (ReNCell VM [1]; library: Prestwick): inactive: 0 | dopaminergic neuron differentiation score (ReNCell VM [2]; library: Prestwick): inactive: 0

CC(=O)Nc1c(I)c(NC(C)=O)c(I)c(C(=O)O)c1I
neuronal differentiation score (ReNCell VM [1]; library: Spectrum): inactive: 0 | dopaminergic neuron differentiation score (ReNCell VM [2]; library: Spectrum): inactive: 0
